The list shows a part of the results. The main result of the screen is listed elsewhere. These columns were measured beside it and carry no call. Most of these compounds were active or inconclusive in the main read-out, so they are no random draw. Potencies come from curve fits of mixed quality, noted in brackets.

The assay in a line: IkB Signaling. As to conditions: ABC-DLBCL IkBa-CBG/CBR dual luciferase ratio (green luciferase fused to IkBa over red control in OCI-Ly3 lymphoma cells), 4 h; measured here: control luc red channel unless noted. The procedure, abridged: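 Curves were fitted separately to fusion (green), unfused (red) and ratio luminescence, then classed by r2, magnitude and activity. Cells: OCI-Ly3, 4 h compound plus doxycycline at 37C; 10 uM MG-132 defined full response.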
A word on the AC50: it is the midpoint of the concentration-response curve, whichever way the signal moves. On to `O=c1oc2ccccc2c(O)c1CN1CCCCC1`, for which the concentration at half-maximal activity (AC50) was 0.0794 µM [falling, full curve].

On to `CCc1cccc(-n2nnc(-c3nc(-c4ccccc4Cl)no3)c2N)c1`, for which the AC50 is 0.02 µM [rising, full curve].

`O=C(CSc1nc2c(c(=O)[nH]1)CN(Cc1ccc3c(c1)OCO3)CC2)Nc1cccc(Cl)c1`: the AC50 is 25.1 µM [falling, single point].

Consider `CS(=O)(=O)c1ncc(Cl)c(C(=O)Nc2ccc(N3CCOCC3)cc2)n1`, for which the AC50 is 3.16 µM [falling, full curve].

For the compound `Cn1nnc2c(NCc3ccccc3Cl)ncnc21`, the AC50 was 39.8 µM [falling, single point].

Regarding `COc1ccccc1-n1cnc2cc(NS(=O)(=O)c3ccccc3)ccc21`, the concentration at half-maximal activity (AC50) is 31.6 µM [falling, single point].

For `Cc1nc2c(c(C)nn2-c2ccccc2)c(C)c1CCC(=O)NCCc1ccccc1`, the concentration at half-maximal activity (AC50) was 5.01 µM [falling, full curve, poor fit].

Take `COc1ccc(CC(=O)NCc2nc3cccnc3n2Cc2ccc(C)cc2)cc1OC`: the AC50 is 6.31 µM [rising, partial curve].

In the case of `Cc1cccc(Cn2cc3c(=O)n(CC(=O)Nc4ccc(C)c(F)c4)nc-3c3cc(F)ccc32)c1`, the AC50 was 20 µM [falling, single point].

As for `COc1ccc(S(=O)(=O)N(Cc2ccccc2)Cc2nc3ccccc3c(=O)[nH]2)cc1`, the AC50 was 39.8 µM [falling, single point].

Turning to `CCc1cccc(NS(=O)(=O)c2c(C)nc3sc(CC)nn3c2=O)c1`, the half-maximal activity concentration (AC50) is 31.6 µM [falling, single point].

In the case of `COc1ccc(S(=O)(=O)Cc2ccc(C(=O)N3CCN(c4cccc(C)c4)C(C)C3)o2)cc1` (stereo not drawn), the half-maximal activity concentration (AC50) was 25.1 µM [falling, partial curve].

Consider `Cc1ccc(NC(=O)Cn2c(=O)n(CCc3ccccc3)c(=O)c3c4c(sc32)CCCC4)c(C)c1`, for which the AC50 was 39.8 µM [falling, single point].

Regarding `Cc1ccc(N2CC(NC(=O)c3ccc(S(=O)(=O)N4CCCCC4)cc3)CC2=O)cc1` (stereo not drawn), the AC50 is 6.31 µM [falling, single point].

Regarding `COC(=O)c1ccc(NC(=O)c2cc(=O)c3ccc(C)cc3o2)cc1`, the concentration at half-maximal activity (AC50) is 0.00631 µM [rising, full curve].

For `CCCCn1c(=O)n(Cc2cccc(F)c2)c(=O)c2c1ncn2Cc1ccco1`, the AC50 was 39.8 µM [falling, single point].

For the compound `CCOc1ccc(-c2nonc2NC(=O)c2oc3ccc(Br)cc3c2C)cc1`, the concentration at half-maximal activity (AC50) was 2 µM [falling, full curve].

With `Cc1ccc(N2CC(NC(=O)Cc3cccs3)CC2=O)cc1C` (stereo not drawn), the concentration at half-maximal activity (AC50) is 6.31 µM [rising, single point].

As to `CCOC(=O)N1CCc2c(sc(NCc3cccc(F)c3)c2C(=O)Nc2ccccc2OCC)C1`, the AC50 is 15.8 µM [falling, single point].

In the case of `CCCCOc1ccccc1C1C(C(=O)OC)=CN(CC)C=C1C(=O)OC`, the AC50 was 12.6 µM [falling, partial curve].

For the compound `COc1ccc2c(c1)CCc1c(C(=O)Nc3ccc(F)c(Cl)c3)noc1-2`, the AC50 is 0.0631 µM [falling, full curve].

On to `CCc1nc2ccc(C(=O)N3CCN(c4ccccc4)CC3)cc2nc1CC`, for which the AC50 was 3.16 µM [rising, partial curve, poor fit].

As to `Cc1ccc(CNC(=O)c2cc3c(s2)-c2ccccc2SC3)cc1`, the half-maximal activity concentration (AC50) is 10 µM [falling, partial curve].

With `COc1ccc(Cl)cc1NC(=O)CCS(=O)(=O)c1nc(-c2cccs2)cc(C(F)(F)F)n1`, the AC50 is 3.16 µM [falling, full curve].

Regarding `CC(C)COc1ccc(C(=O)Nc2cccc(-c3nc4ccccc4[nH]3)c2)cc1`, the half-maximal activity concentration (AC50) was 15.8 µM [falling, partial curve].

Turning to `COc1ccccc1-c1cc2nc(C)c(CCC(=O)Nc3ccc(Br)c(C)c3)c(C)n2n1`, the concentration at half-maximal activity (AC50) is 1 µM [falling, full curve].

In the case of `CCOc1ccc2[nH]c(=O)c(CN(Cc3ccco3)C(CC)c3nnnn3Cc3ccccc3)cc2c1` (stereo not drawn), the AC50 is 25.1 µM [falling, partial curve].

Regarding `CC(C)N(C(=O)CSc1nc2ccc(Cl)cc2[nH]1)c1ccccc1`, the concentration at half-maximal activity (AC50) was 15.8 µM [falling, partial curve].

With `COc1ccccc1CNC(=O)CCC1N=C2c3ccccc3N=C(SCc3cccc(Cl)c3)N2C1=O` (stereo not drawn), the concentration at half-maximal activity (AC50) is 20 µM [falling, partial curve].

As for `O=C(Nc1ccccc1C(=O)O)c1cccc(NC(=O)c2ccc(Br)o2)c1`, the AC50 was 15.8 µM [falling, partial curve].

Consider `COc1ccc(-c2cc3nc(-c4ccc(C)cc4)cc(C(F)(F)F)n3n2)cc1`, for which the AC50 is 0.01 µM [rising, full curve, poor fit].

As to `COc1ccc(S(=O)(=O)N(CCc2ccccc2)CC(=O)Nc2ccc(C)c(C)c2)cc1OC`, the AC50 is 12.6 µM [falling, partial curve].

Regarding `C[C@@H](NCc1cc(Br)cc2[nH]c(=O)c(=O)[nH]c12)P(=O)(O)O`, the AC50 was 12.6 µM [rising, partial curve].

As for `CCOc1cc(-c2nnc(SCC(=O)Nc3ccc(F)c(F)c3)nc2-c2ccc(OC)c(OCC)c2)ccc1OC`, the AC50 was 3.16 µM [falling, full curve].

On to `O=C(Nc1cccc(-c2nc3ccccc3o2)c1)c1ccc(-c2ccc(Br)cc2)o1`, for which the AC50 was 5.01 µM [falling, full curve].

`O=S(=O)(Nc1ccc(-c2ccc(N3CCCC3)nn2)cc1)c1ccc(Cl)cc1`: the AC50 is 0.631 µM [falling, full curve, poor fit].

Regarding `COc1ccc(Cc2nc3ccccc3[nH]c2=O)cc1`, the half-maximal activity concentration (AC50) is 0.0316 µM [rising, full curve, poor fit].

Consider `C=Cc1ccc(Cn2c(C)c(CNCc3cccc(Br)c3)c(C(=O)O)c2C)cc1`, for which the half-maximal activity concentration (AC50) is 25.1 µM [falling, single point].

Turning to `Cc1cccc(Cn2c(CNS(=O)(=O)c3ccc4c(c3)CCCC4)nc3cccnc32)c1`, the AC50 is 15.8 µM [falling, partial curve].

Turning to `Cc1c(Cl)cccc1-c1ccc(C(=O)Nc2ccc(F)cc2)o1`, the AC50 was 15.8 µM [falling, partial curve].

For the compound `CN(C1=NC(=O)C(CC(=O)Nc2ccc(Br)cc2)S1)c1ccc(O)cc1` (stereo not drawn), the half-maximal activity concentration (AC50) was 10 µM [falling, partial curve].

Regarding `CCOc1ccc(-c2cccc(NS(=O)(=O)c3c(C)cc(C)cc3C)c2)nn1`, the half-maximal activity concentration (AC50) is 15.8 µM [falling, partial curve].

For `COc1ccccc1OCC(=O)NCC(c1ccc(Cl)cc1)N1CCCCC1` (stereo not drawn), the AC50 was 25.1 µM [falling, single point].

Take `CCOc1ccc(-c2nnc(-c3cccs3)o2)cc1OCC`: the AC50 was 0.158 µM [rising, full curve, poor fit].

As for `[O-][n+]1onc2c1CCc1c-2nn(-c2ccccc2Cl)[n+]1[O-]`, the AC50 is 15.8 µM [falling, partial curve].

Turning to `Cc1c(Cl)cccc1NC(=O)Cn1c(CCC(=O)O)ccc1-c1cccs1`, the AC50 was 25.1 µM [falling, single point].

As to `CCOC(=O)c1c(NC(C)=O)c2c3c(sc2n1Cc1nc(-c2cccc(Cl)c2)oc1C)CCCC3`, the concentration at half-maximal activity (AC50) was 0.126 µM [falling, single point].

Take `CC(C)(C)OC(=O)N1CCC(c2c(C(=O)N3CCCCC3)cnn2-c2ccc(Cl)cc2)CC1`: the concentration at half-maximal activity (AC50) was 25.1 µM [falling, single point].

Consider `COc1ccc(N2CC(NC(=O)COc3ccccc3)CC2=O)cc1OC` (stereo not drawn), for which the AC50 is 1.58 µM [rising, partial curve].

For `CCOC(=O)c1cnc2ccc(OC)cc2c1NCCc1ccccc1`, the half-maximal activity concentration (AC50) is 25.1 µM [falling, partial curve].

On to `CN(c1ncnc2onc(-c3cccc(Cl)c3)c12)C1CCCCC1`, for which the AC50 is 10 µM [falling, partial curve].

Take `CCN=c1scc(-c2ccc3c(c2)NC(=O)CO3)n1N=C1CCCC1`: the half-maximal activity concentration (AC50) was 10 µM [falling, partial curve].

As to `CCOC(=O)C1CCCN(C(=O)c2nn(-c3ccc(OC)cc3)c(=O)c3c2c2ccccc2n3C)C1` (stereo not drawn), the concentration at half-maximal activity (AC50) was 0.158 µM [rising, full curve, poor fit].

As for `COc1cc(Cl)c(C)cc1NC(=O)CSc1nnc(-c2ccco2)n1CC(C)C`, the AC50 is 15.8 µM [falling, partial curve].

`CCc1cccc(NC(=O)C2CCN(C(=O)c3cnn(-c4ccccc4)c3-n3cccc3)CC2)c1`: the concentration at half-maximal activity (AC50) is 15.8 µM [falling, partial curve].

With `Nc1nc(Nc2ccccc2F)sc1C(=O)c1ccc(Cl)cc1`, the AC50 was 25.1 µM [falling, single point].

For `CCc1ccc(-n2nc(C)c3c(C)cc(=O)n(CC(=O)N4CCCc5ccccc54)c32)cc1`, the AC50 is 12.6 µM [falling, partial curve].

As to `O=C(CSc1nc2c([nH]c3ccccc32)c(=O)n1-c1ccc(F)cc1)N1CCCCC1`, the half-maximal activity concentration (AC50) was 2.51 µM [rising, full curve].

For the compound `CCc1ccc(OCC(=O)N(Cc2ccc(Cl)cc2)C2CCS(=O)(=O)C2)cc1` (stereo not drawn), the concentration at half-maximal activity (AC50) was 31.6 µM [falling, single point].

On to `CCOC(=O)c1oc2c(c1C)-c1nn(Cc3ccc(Cl)cc3)cc1CC2`, for which the half-maximal activity concentration (AC50) is 39.8 µM [falling, partial curve].

For the compound `CCC(C)NC(=O)Cn1c(=O)cc(-c2ccccc2)c2c(C)nn(C)c21` (stereo not drawn), the AC50 is 15.8 µM [rising, partial curve, poor fit].

Consider `Cn1c(NCCO)nc2c1c(=O)n(Cc1ccccc1Cl)c(=O)n2C`, for which the AC50 is 3.16 µM [falling, partial curve, poor fit].

Turning to `O=C(CCc1nc(-c2ccccc2F)no1)Nc1ccc(Oc2ccccc2)cc1`, the AC50 is 12.6 µM [falling, partial curve].
